The supplement of paper PMC12024529
Where a name gives a salt, the structure may show the parent alone. Some of the results follow. Part of the spread comes from offsets between plates or batches.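 The cells are HEK293 lines stably expressing B-domain-deleted factor VIII fused to Gaussia luciferase, either wild type or a misfolding-prone missense mutant. Each score is mean luminescence from triplicate wells minus the DMSO mean, divided by the DMSO standard deviation; a score of 2 or more counts as a hit, and low scores may reflect lower secretion or poorer cell viability.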

What follows are molecules tested on HEK293 p.N1941S BDD-FVIII-Gluc (assay: secreted FVIII-Gluc luciferase Z-score vs DMSO control; higher = more FVIII-Gluc secretion). Settings: 5 µM; 24 h.

Row | SMILES | secreted FVIII-Gluc luciferase Z-score
1 | CCOC(=O)[C@H](CCc1ccccc1)N[C@@H](C)C(=O)N1CCC[C@H]1C(=O)O [Enalapril maleate (Vasotec)] | inactive: 0.111
2 | C[C@]12CC[C@@H]3c4ccc(O)cc4CC[C@H]3[C@@H]1CCC2=O [Estrone] | inactive: 1.09
3 | Cc1noc(NS(=O)(=O)c2ccc(N)cc2)c1C [Sulfisoxazole] | active: 3.99
4 | O=C(O[C@H]1CN2CCC1CC2)N1CCc2ccccc2[C@@H]1c1ccccc1 [Solifenacin succinate] | inactive: -1.32
5 | CN1c2cc(O)c(N=NC(N)=O)cc2CC1S(=O)(=O)O (stereo not drawn) [Carbazochrome sodium sulfonate] | inactive: 0.117
6 | Nc1nc(=O)n([C@@H]2CS[C@H](CO)O2)cc1F [Emtricitabine (Emtriva)] | inactive: 1.65
7 | CC(=O)Nc1ccccc1 [Acetanilide (Antifebrin)] | inactive: -4.48
8 | CC(C)(OCc1nn(Cc2ccccc2)c2ccccc12)C(=O)O [Bindarit] | inactive: 0.26
9 | CO[C@H]1/C=C/O[C@@]2(C)Oc3c(C)c(O)c4c(O)c(c5c(nc6cc(C)ccn65)c4c3C2=O)NC(=O)/C(C)=C\C=C\[C@H](C)[C@H](O)[C@@H](C)[C@@H](O)[C@@H](C)[C@H](OC(C)=O)[C@@H]1C [Rifaximin (Xifaxan)] | inactive: -1.82
10 | Cn1nnc2c(C(N)=O)ncn2c1=O [Methazolastone] | inactive: -5.44
11 | NC(=O)N1c2ccccc2C=Cc2ccccc21 [Carbamazepine (Carbatrol)] | inactive: 0.583
12 | CN1CC(=O)N2[C@H](c3ccc4c(c3)OCO4)c3[nH]c4ccccc4c3C[C@@H]2C1=O [Tadalafil (Cialis)] | inactive: -1.09
13 | Cc1cc(=O)n(-c2ccccc2)n1C [Antipyrine] | inactive: -0.0393
14 | C[C@]12CCC(=O)C=C1[C@@H]1C[C@@H]1[C@H]1[C@@H]3[C@@H]4C[C@@H]4[C@@]4(CCC(=O)O4)[C@@]3(C)CC[C@@H]12 [Drospirenone] | inactive: -0.537
15 | CC1Cc2ccccc2N1NC(=O)c1ccc(Cl)c(S(N)(=O)=O)c1 (stereo not drawn) [Indapamide (Lozol)] | inactive: 0.195
16 | CC(C)NCC(O)c1ccc(O)c(O)c1 (stereo not drawn) [Isoprenaline hydrochloride] | inactive: 0.0955
17 | CN1CCC[C@H]1c1cccnc1 [Nicotine Ditartrate] | inactive: 1.81
18 | CCOc1ccc2nc3cc(N)ccc3c(N)c2c1 [Ethacridine lactate monohydrate] | inactive: 1.54
19 | CC[C@@H]([C@H](C)O)n1ncn(-c2ccc(N3CCN(c4ccc(OC[C@@H]5CO[C@@](Cn6cncn6)(c6ccc(F)cc6F)C5)cc4)CC3)cc2)c1=O [Posaconazole] | inactive: -9.48
20 | CCCCOc1cc(C(=O)NCCN(CC)CC)c2ccccc2n1 [Dibucaine HCL] | inactive: 0.856
21 | Nc1nc2c(ncn2COCCO)c(=O)[nH]1 [Acyclovir (Aciclovir)] | inactive: 0.664
22 | CCCNCC(O)COc1ccccc1C(=O)CCc1ccccc1 (stereo not drawn) [Propafenone (Rytmonorm)] | inactive: 0.545
23 | CO[C@H]1C(=O)[C@]2(C)[C@@H](OC)C[C@H]3OC[C@@]3(OC(C)=O)[C@H]2[C@H](OC(=O)c2ccccc2)[C@]2(O)C[C@H](OC(=O)[C@H](O)[C@@H](NC(=O)OC(C)(C)C)c3ccccc3)C(C)=C1C2(C)C [Cabazitaxel (Jevtana)] | inactive: -2.92
24 | CC(=O)O[C@@]12CO[C@@H]1C[C@H](O)[C@@]1(C)C(=O)[C@H](O)C3=C(C)[C@@H](OC(=O)[C@H](O)[C@@H](NC(=O)OC(C)(C)C)c4ccccc4)C[C@@](O)([C@@H](OC(=O)c4ccccc4)[C@H]21)C3(C)C [Docetaxel (Taxotere)] | inactive: -10.8
25 | CC(C(=O)O)c1cccc(C(=O)c2ccccc2)c1 (stereo not drawn) [Ketoprofen (Actron)] | inactive: -0.332
26 | CC(=O)OCC(CCn1cnc2cnc(N)nc21)COC(C)=O [Famciclovir (Famvir)] | inactive: -6.43
27 | C#Cc1cccc(Nc2ncnc3cc(OCCOC)c(OCCOC)cc23)c1 [Erlotinib HCl] | inactive: -3.45
28 | COC(=O)C1=CO[C@@H](O)[C@@H]2C(CO)=CC[C@H]12 [Genipin] | inactive: -0.549

Fetched by structure from above:
Row | SMILES | secreted FVIII-Gluc luciferase Z-score
1 | CCOC(=O)[C@H](CCc1ccccc1)N[C@@H](C)C(=O)N1CCC[C@H]1C(=O)O [Enalapril maleate (Vasotec)] | inactive: 0.111
14 | C[C@]12CCC(=O)C=C1[C@@H]1C[C@@H]1[C@H]1[C@@H]3[C@@H]4C[C@@H]4[C@@]4(CCC(=O)O4)[C@@]3(C)CC[C@@H]12 [Drospirenone] | inactive: -0.537
